Laboratory results taken from PMC4351090.
These are yes or no findings as the source states them, for the method shown. Binding seen in cells or lysates may run through a third protein. Some results given as binding are weak or reduced against the parent protein; the word gives no strength.

The chains behind the UniProt entries cited, without tags or fusion partners. Where a name states a change or a piece, a line headed by the entry shows the natural chain unless it says otherwise.
UniProt P23298: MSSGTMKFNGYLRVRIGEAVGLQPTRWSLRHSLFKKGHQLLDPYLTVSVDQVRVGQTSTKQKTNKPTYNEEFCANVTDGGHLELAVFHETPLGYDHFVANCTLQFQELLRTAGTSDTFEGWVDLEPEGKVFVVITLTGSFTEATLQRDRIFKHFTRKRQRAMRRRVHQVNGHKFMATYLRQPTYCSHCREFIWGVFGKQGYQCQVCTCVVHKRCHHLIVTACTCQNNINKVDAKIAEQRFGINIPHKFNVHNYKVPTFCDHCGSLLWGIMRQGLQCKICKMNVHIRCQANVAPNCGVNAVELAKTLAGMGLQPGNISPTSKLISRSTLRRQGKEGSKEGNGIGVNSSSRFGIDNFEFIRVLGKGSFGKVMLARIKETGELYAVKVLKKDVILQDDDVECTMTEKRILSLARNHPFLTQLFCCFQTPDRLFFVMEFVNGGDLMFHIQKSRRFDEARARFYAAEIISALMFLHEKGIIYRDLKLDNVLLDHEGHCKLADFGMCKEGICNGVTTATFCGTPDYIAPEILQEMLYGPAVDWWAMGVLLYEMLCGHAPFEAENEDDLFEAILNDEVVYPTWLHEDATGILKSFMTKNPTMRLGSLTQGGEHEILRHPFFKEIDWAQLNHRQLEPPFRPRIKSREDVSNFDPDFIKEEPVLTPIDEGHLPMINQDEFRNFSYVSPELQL
UniProt P26043: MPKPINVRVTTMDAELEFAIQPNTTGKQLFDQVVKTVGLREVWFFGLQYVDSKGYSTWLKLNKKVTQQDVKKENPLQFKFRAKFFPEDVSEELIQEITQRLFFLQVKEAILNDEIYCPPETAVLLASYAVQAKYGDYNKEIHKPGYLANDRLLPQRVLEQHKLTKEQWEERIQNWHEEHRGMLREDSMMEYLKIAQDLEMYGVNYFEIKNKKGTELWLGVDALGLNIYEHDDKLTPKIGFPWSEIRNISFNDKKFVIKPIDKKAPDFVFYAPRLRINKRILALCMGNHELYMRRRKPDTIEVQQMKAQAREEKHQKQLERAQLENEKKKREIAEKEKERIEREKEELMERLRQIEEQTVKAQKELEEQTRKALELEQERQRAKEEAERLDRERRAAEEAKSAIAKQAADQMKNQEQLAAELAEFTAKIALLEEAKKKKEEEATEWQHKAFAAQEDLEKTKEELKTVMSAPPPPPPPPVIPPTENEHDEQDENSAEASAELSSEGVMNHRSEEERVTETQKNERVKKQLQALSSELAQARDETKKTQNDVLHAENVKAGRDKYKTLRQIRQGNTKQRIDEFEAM

Experiments:
Myc-tagged PKCη = Myc-tagged PKCη (UniProt P23298); experiment: co-IP
[1] = target: Flag-tagged constitutively active radixin RdxT564E (UniProt P26043); experiment: co-IP; lysates of MVM-infected (30 pfu/cell) A9 cell lines co-expressing MycPKCη and a Flag-tagged ERM variant; non-denaturing conditions; IP with mouse monoclonal anti-Flag M2; western blot with rabbit anti-Myc
[2] = target: Flag-tagged dominant-negative radixin RdxT564A (UniProt P26043); experiment: as above

Row | Substance | binding (Myc-tagged PKCη) | binding [1] | binding [2]
1 | endogenous radixin (from UniProt P26043 1-583) | binds | – | –
2 | Myc-tagged PKCη (from UniProt P23298 1-683) (enzyme) | – | binds | binds weakly
